Values quoted from earlier work in patent US10945961B2, “Method using enteric-coated etidronate for treating calcification, hypercalcaemia, and calcinosis of the brain and other organs” (ZY YTHERAPEUTICS LLC, priority 2017, dated 2021).

Tested on: patients with brain calcifications (Fahr's Disease)
Conditions: patients with brain calcification

NCCCC(O)(P(=O)(O)O)P(=O)(O)O [alendronate]
symptomatic effect (seizures, headaches, Parkinsonian symptoms): symptomatic relief in a large patient population but not as significantly as with disodium etidronate
